Results reported in PMC11601148, “Effects of proline substitution/inclusion on the nanostructure of a self-assembling β-sheet-forming peptide†” (RSC Advances, 2024).
No constants are given. Whether binding was seen depends on the method and setting.

Assays:
FEFKPEFK [1] = assay: ATR-FTIR spectroscopy; peptide at 40 mg/mL, pH adjusted to ~4; beta-sheet bands at 1636 and 1697 cm^-1; both purified
FEFKPEFK [2] = assay: ITC; NaOH (0.0025, 0.0125, 0.025 M) titrated into peptide at 0.1, 0.5 and 1 mg/mL in water, 25 °C; the energy change on deprotonation is read as a sign of self-assembly, no binding constant is fitted; both purified

binding (FEFKPEFK [1]): no binding (tested: 40 mg mL^-1)
Binder: FEFKPEFK
binding (FEFKPEFK [2]): no binding (tested: 0.1, 0.5 and 1 mg mL^-1)
